Results are given in words; binding and its absence hold for the method and conditions named. In cells and extracts the contact can be indirect. Some results given as binding are weak or reduced against the parent protein; the word gives no strength. Where a sequence is shown, tags or fusion partners need not be part of it.
T1: FLAG–Rnd3 (UniProt P61588)
T1 sequence: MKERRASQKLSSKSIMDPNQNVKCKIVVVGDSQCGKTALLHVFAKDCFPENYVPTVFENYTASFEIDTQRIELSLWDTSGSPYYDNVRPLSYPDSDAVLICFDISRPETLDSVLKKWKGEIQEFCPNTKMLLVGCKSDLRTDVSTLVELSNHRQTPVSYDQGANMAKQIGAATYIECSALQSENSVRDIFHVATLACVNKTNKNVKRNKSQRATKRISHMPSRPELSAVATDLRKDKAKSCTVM

Chains of the proteins cited; added tags and fusions are not shown. Lines headed by an entry give the natural chain unless they say otherwise; changes in a name come on top. A line that says so, or that is headed by a name, gives the form on record, which may keep a tag or linker. Residues count along the entry.
UniProt O43157: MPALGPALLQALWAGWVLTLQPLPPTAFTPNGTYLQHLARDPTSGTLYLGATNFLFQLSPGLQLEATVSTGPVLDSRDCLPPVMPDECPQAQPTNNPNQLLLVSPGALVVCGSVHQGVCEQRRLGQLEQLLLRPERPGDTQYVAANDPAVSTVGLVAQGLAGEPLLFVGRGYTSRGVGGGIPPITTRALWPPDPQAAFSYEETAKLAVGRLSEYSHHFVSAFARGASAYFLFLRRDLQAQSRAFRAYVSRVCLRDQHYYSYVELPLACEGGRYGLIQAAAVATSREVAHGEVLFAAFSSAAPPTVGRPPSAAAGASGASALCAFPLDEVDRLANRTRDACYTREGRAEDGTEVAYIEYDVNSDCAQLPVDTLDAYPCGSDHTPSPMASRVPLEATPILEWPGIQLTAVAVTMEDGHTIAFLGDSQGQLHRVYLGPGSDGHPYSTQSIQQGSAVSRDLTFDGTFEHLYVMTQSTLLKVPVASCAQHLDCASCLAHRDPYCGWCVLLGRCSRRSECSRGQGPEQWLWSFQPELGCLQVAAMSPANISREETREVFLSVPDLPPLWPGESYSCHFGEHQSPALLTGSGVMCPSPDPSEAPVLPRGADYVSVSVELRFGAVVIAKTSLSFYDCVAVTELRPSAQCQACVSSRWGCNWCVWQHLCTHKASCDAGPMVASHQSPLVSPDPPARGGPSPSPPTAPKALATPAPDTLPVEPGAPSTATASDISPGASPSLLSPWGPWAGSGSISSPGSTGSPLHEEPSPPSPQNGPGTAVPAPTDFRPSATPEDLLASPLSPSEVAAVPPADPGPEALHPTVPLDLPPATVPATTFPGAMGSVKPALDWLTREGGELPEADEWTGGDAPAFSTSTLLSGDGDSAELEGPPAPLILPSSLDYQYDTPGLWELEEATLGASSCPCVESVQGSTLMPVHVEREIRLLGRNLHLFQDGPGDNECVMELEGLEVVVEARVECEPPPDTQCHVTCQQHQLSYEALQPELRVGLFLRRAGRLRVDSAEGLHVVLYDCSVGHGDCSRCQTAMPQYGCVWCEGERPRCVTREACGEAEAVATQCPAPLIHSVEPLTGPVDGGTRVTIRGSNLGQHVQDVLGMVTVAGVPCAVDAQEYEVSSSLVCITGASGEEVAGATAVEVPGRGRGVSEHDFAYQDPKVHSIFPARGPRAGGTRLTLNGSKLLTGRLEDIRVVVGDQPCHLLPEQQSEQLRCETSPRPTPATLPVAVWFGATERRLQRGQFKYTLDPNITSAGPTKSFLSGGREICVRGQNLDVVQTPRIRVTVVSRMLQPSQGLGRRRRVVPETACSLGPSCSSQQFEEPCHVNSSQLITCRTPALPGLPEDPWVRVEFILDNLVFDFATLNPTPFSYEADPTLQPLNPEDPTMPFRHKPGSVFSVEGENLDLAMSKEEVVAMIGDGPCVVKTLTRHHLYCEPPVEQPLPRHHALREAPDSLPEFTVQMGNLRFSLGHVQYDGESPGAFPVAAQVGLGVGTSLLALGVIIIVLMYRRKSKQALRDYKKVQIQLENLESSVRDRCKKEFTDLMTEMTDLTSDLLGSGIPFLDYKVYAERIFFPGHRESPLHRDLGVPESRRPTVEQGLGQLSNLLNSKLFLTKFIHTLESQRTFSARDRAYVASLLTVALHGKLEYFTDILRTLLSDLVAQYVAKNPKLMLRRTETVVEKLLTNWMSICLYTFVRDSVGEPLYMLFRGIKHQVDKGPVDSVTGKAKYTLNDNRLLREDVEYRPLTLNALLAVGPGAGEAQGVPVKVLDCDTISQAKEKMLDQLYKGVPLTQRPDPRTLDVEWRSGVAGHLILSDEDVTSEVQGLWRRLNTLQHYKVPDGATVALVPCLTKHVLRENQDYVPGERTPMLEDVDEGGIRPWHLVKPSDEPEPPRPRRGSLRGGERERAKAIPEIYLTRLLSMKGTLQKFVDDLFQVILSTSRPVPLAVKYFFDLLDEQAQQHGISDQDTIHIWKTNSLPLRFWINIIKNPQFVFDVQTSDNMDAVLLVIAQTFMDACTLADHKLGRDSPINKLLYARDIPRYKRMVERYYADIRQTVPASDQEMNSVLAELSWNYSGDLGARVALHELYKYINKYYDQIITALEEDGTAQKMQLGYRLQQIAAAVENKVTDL
HA-tagged plexin-B1 cytoplasmic domain (plexin-B1-cyto): residues 1512-2135 of O43157
UniProt Q9ULL4: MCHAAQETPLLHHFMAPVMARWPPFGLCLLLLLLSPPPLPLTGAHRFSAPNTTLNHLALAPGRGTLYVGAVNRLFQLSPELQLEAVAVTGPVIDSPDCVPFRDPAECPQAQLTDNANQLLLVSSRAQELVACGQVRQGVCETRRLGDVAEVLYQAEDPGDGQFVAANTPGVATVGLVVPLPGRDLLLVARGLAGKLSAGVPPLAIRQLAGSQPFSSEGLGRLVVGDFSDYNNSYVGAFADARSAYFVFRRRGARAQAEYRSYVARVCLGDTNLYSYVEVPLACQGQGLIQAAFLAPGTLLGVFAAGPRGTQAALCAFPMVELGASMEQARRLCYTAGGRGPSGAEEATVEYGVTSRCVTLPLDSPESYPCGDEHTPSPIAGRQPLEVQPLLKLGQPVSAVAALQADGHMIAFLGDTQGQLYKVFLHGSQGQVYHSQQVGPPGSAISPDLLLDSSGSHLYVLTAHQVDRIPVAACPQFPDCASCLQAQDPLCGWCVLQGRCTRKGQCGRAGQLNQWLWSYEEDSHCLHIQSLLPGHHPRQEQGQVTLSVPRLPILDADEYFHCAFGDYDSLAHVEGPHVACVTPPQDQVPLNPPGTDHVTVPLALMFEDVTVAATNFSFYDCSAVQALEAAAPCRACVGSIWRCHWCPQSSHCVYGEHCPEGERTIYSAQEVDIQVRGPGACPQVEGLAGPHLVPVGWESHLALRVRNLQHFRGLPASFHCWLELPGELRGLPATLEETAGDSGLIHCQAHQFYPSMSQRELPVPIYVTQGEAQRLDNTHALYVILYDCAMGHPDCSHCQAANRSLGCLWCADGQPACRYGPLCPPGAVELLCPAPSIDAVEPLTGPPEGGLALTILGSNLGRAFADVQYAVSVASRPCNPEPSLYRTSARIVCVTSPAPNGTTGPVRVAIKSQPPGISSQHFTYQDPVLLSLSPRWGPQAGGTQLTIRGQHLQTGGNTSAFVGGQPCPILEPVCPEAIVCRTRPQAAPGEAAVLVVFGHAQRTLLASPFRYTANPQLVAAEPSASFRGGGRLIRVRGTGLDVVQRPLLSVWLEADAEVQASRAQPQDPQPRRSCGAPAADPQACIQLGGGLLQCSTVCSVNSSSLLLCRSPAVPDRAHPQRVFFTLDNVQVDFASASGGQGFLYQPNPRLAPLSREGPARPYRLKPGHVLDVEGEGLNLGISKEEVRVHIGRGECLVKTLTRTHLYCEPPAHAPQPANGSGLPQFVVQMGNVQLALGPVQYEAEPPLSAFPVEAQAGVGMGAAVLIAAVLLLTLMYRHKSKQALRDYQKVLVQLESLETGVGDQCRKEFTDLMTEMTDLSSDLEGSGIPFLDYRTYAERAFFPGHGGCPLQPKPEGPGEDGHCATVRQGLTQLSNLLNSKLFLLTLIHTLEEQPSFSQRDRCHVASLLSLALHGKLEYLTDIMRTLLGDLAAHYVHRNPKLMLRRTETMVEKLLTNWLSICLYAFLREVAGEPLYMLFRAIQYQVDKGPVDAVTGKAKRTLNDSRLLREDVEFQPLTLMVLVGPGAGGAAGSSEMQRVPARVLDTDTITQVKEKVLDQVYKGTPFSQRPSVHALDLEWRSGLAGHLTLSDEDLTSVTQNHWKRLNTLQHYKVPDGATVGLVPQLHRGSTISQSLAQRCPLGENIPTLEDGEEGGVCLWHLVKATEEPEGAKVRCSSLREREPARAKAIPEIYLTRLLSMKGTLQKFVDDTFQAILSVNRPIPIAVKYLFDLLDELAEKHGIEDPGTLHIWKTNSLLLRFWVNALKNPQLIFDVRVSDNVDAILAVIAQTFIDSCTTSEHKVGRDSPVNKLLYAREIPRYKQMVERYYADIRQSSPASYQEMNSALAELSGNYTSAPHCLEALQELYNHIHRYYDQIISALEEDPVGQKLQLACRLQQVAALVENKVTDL
HA-tagged plexin-B3 cytoplasmic domain (plexin-B3-cyto): residues 1277-1909 of Q9ULL4
UniProt P62834: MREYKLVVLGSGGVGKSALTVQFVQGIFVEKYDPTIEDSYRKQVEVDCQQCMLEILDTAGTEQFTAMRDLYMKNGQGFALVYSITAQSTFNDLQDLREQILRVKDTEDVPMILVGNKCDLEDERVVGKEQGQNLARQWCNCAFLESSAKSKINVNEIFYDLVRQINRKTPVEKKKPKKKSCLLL
UniProt P31946: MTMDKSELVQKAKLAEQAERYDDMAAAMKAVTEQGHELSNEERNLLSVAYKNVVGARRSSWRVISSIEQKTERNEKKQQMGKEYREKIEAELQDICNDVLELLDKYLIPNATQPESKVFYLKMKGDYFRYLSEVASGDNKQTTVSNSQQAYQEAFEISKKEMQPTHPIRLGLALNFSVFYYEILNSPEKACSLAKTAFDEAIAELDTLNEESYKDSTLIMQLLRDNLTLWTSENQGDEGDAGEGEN
UniProt P61224: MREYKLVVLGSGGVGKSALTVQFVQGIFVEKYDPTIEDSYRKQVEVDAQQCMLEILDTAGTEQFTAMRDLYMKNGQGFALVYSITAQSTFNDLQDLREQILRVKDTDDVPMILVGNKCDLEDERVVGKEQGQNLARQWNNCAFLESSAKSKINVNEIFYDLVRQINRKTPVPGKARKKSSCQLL

T2: recombinant glutathione S-transferase (GST)-tagged Rnd3 (UniProt P61588)
T2 sequence: T1 sequence

T3: FLAG–Rnd2 (UniProt P52198)
T3 sequence: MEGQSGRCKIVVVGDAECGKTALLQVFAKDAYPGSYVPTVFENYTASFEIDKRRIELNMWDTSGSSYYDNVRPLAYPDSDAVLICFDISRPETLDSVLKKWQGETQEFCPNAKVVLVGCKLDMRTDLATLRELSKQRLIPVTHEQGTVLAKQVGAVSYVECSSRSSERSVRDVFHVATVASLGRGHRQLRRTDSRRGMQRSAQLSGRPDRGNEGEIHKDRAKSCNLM

T4: FLAG–Rnd1 (UniProt Q92730)
T4 sequence: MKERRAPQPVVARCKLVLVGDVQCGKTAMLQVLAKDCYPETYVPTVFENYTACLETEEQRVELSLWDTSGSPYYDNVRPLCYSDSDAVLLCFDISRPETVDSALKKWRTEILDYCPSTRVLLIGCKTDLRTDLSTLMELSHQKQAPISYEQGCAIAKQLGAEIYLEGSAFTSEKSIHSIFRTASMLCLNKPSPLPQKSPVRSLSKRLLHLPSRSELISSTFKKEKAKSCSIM

B1: FLAG–Rnd3 (protein, UniProt P61588 1-244)
chain: T1 sequence
B2: FLAG–Rnd2 (protein, UniProt P52198 1-227)
chain: T3 sequence
B3: FLAG–Rnd1 (protein, UniProt Q92730 1-232)
chain: T4 sequence
B4: myc-R-Ras (protein, UniProt P10301 1-218)
chain: MSSGAASGTGRGRPRGGGPGPGDPPPSETHKLVVVGGGGVGKSALTIQFIQSYFVSDYDPTIEDSYTKICSVDGIPARLDILDTAGQEEFGAMREQYMRAGHGFLLVFAINDRQSFNEVGKLFTQILRVKDRDDFPVVLVGNKADLESQRQVPRSEASAFGASHHVAYFEASAKLRLNVDEAFEQLVRAVRKYQEQELPPSPPSAPRKKGGGCPCVLL

Experiments:
[1] = biological target: full-length VSV-tagged plexin-B1 (UniProt O43157); experiment: co-IP; lysates of COS7 cells co-expressing plexin-B constructs and myc-R-Ras, GFP–Rap1A or HA–Rap1B; immunoprecipitated and western blotted with the indicated antibodies (not given)
[2] = biological target: full-length VSV-tagged plexin-B3 (UniProt Q9ULL4); experiment: as above
FLAG–Rnd3 = biological target: T1, FLAG–Rnd3; experiment: co-IP; lysates of co-transfected COS7 cells (20 mM Tris-HCl pH 8, 130 mM NaCl, 1% Triton X-100); anti-FLAG or anti-HA antibody on agarose beads, 2 h at 4°C; immunoblotting
[3] = biological target: T2, recombinant glutathione S-transferase (GST)-tagged Rnd3; experiment: pull-down; GST or GST–Rnd3 on glutathione–Sepharose beads incubated 2 h at 4°C with lysates of transfected COS7 cells (1% Triton X-100, 20 mM Tris-HCl pH 8, 130 mM NaCl); immunoblotting; only the target purified
FLAG–Rnd2 = biological target: T3, FLAG–Rnd2; experiment: co-IP; lysates of co-transfected COS7 cells (20 mM Tris-HCl pH 8, 130 mM NaCl, 1% Triton X-100); anti-FLAG or anti-HA antibody on agarose beads, 2 h at 4°C; immunoblotting
FLAG–Rnd1 = biological target: T4, FLAG–Rnd1; experiment: as above
[4] = biological target: HA-tagged plexin-B3 cytoplasmic domain (plexin-B3-cyto) (human) (UniProt Q9ULL4); experiment: as above
[5] = biological target: HA-tagged plexin-B1 cytoplasmic domain (plexin-B1-cyto) (human) (UniProt O43157); experiment: as above

| Molecule | binding [1] | binding [2] | binding (FLAG–Rnd3) | binding [4] | binding [5] | also measured |
| --- | --- | --- | --- | --- | --- | --- |
| GFP–Rap1A (from UniProt P62834 1-184) | binds | binds | – | – | – | – |
| HA–14-3-3β (from UniProt P31946 1-246) | – | – | binds | – | – | – |
| HA–Rap1B (from UniProt P61224 1-184) | binds | binds | – | – | – | – |
| full-length VSV-tagged plexin-B1 (from UniProt O43157 20-2135) (receptor) | – | – | binds weakly | – | – | binding [3]: binds weakly; binding (FLAG–Rnd2): binds; binding (FLAG–Rnd1): binds weakly |
| full-length VSV-tagged plexin-B3 (from UniProt Q9ULL4 45-1909) (receptor) | – | – | binds weakly | – | – | binding [3]: binds weakly; binding (FLAG–Rnd2): binds; binding (FLAG–Rnd1): binds weakly |
| B1 | – | – | – | binds weakly | binds weakly | – |
| B2 | – | – | – | binds | binds | – |
| B3 | – | – | – | binds weakly | binds weakly | – |
| B4 | binds | binds | – | – | – | – |

From paper PMC5117210
